Source: PubChem BioAssay AID1259263 (Sanger Institute, 2017)
Shown is an unselected part of 160 deposited reagents. In the full data, 101 (63%) are marked active. 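Drug doses chosen to kill few cells alone; each row is one siRNA, and a gene counts as confirmed only if two or more siRNAs show synergy.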 Reagents against one gene are numbered here. Further read-outs or replicates are left out here. Not stated in the record: the amount of reagent, the time to read-out.

Screen: 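Recheck kinase screen hits for synergy with three targeted cancer drugs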 (follow-up of hits)
System: SW1463 human colorectal cancer cell line
Reagents: single siRNA against human genes
Challenge: anchor drugs BYL719 at 1 µM, cetuximab at 5 µg/ml or trametinib at 10 nM, or DMSO vehicle, added one day after siRNA transfection
Measured: 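Viability relative to a non-targeting siRNA control, averaged over replicates, plus a synergy score contrasting measured with expected viability loss for knock-down and drug combined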
Direction: synergy score with trametinib and synergy score with BYL719 and synergy score with cetuximab: higher = stronger synthetic lethal effect with the drug
Active means: 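Called active if the synergy score is above 0.10 for one or more of the three anchor drugs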
Meaning of the calls: active = synergy with at least one drug; inactive = no synergy with any drug

no.	target gene	reagent no.	synergy score with trametinib	synergy score with BYL719	synergy score with cetuximab	call
1	MPP3 (GeneID 4356)	1	0.143	-0.0603	-0.0799	active
2	MPP3 (GeneID 4356)	2	0.128	-0.038	0.38	active
3	MPP3 (GeneID 4356)	3	0.3	0.195	0.0497	active
4	MPP3 (GeneID 4356)	4	0.208	-0.175	0.0836	active
5	KCNH8 (GeneID 131096)	1	0.15	0.0267	0.331	active
6	KCNH8 (GeneID 131096)	2	0.193	0.219	0.134	active
7	KCNH8 (GeneID 131096)	3	-0.0946	0.0622	-0.0793	inactive
8	KCNH8 (GeneID 131096)	4	0.216	-0.128	-0.068	active
9	EPHA6 (GeneID 285220)	1	0.137	0.0876	0.0246	active
10	EPHA6 (GeneID 285220)	2	0.127	-0.0898	0.181	active
11	EPHA6 (GeneID 285220)	3	0.018	0.032	-0.0327	inactive
12	EPHA6 (GeneID 285220)	4	0.0189	-0.00195	0.0645	inactive
13	CRIM1 (GeneID 51232)	1	-0.102	0.148	0.135	
14	CRIM1 (GeneID 51232)	2	-0.34	0.114	-0.121	
15	CRIM1 (GeneID 51232)	3	0.344	0.224	-0.000604	active
16	CRIM1 (GeneID 51232)	4	0.234	0.105	0.125	active
17	SYNCRIP (GeneID 10492)	1	0.0214	-0.35	-0.207	inactive
18	SYNCRIP (GeneID 10492)	2	0.132	0.0102	-0.00565	active
19	SYNCRIP (GeneID 10492)	3	0.18	-0.564	-0.201	active
20	SYNCRIP (GeneID 10492)	4	0.0408	-0.265	-0.369	inactive

Sorted by “synergy score with BYL719” (lowest first): some entries from above
target gene	reagent no.	synergy score with trametinib	synergy score with BYL719	synergy score with cetuximab	call
SYNCRIP (GeneID 10492)	3	0.18	-0.564	-0.201	active
SYNCRIP (GeneID 10492)	1	0.0214	-0.35	-0.207	inactive
EPHA6 (GeneID 285220)	4	0.0189	-0.00195	0.0645	inactive
SYNCRIP (GeneID 10492)	2	0.132	0.0102	-0.00565	active
CRIM1 (GeneID 51232)	4	0.234	0.105	0.125	active
CRIM1 (GeneID 51232)	2	-0.34	0.114	-0.121	
CRIM1 (GeneID 51232)	1	-0.102	0.148	0.135	
CRIM1 (GeneID 51232)	3	0.344	0.224	-0.000604	active

The listing continues:
no.	target gene	reagent no.	synergy score with trametinib	synergy score with BYL719	synergy score with cetuximab	call
21	IRAK1 (GeneID 3654)	1	0.428	0.0946	0.0959	active
22	IRAK1 (GeneID 3654)	2	0.0761	0.367	0.117	
23	IRAK1 (GeneID 3654)	3	0.0103	-0.0574	-0.171	inactive
24	IRAK1 (GeneID 3654)	4	-0.257	0.0288	-0.175	inactive
25	IKBKB (GeneID 3551)	1	-0.0454	-0.0475	-0.117	inactive
26	IKBKB (GeneID 3551)	2	0.225	0.174	0.165	active
27	IKBKB (GeneID 3551)	3	0.071	0.0622	-0.13	inactive
28	IKBKB (GeneID 3551)	4	0.0461	0.0606	-0.201	inactive
29	CSNK2A2 (GeneID 1459)	1	-0.0144	-0.09	-0.111	inactive
30	CSNK2A2 (GeneID 1459)	2	-0.0932	-0.283	-0.0719	inactive
31	CSNK2A2 (GeneID 1459)	3	0.0339	-0.0949	-0.281	inactive
32	CSNK2A2 (GeneID 1459)	4	0.231	-0.0249	0.0902	active
33	PIK3CA (GeneID 5290)	1	0.0342	0.131	-0.0927	
34	PIK3CA (GeneID 5290)	2	0.0887	0.159	0.0913	
35	PIK3CA (GeneID 5290)	3	0.232	0.0511	0.0871	active
36	PIK3CA (GeneID 5290)	4	0.0575	-0.00837	-0.175	inactive
37	PRAG1 (GeneID 157285)	1	0.199	0.345	0.176	active
38	PRAG1 (GeneID 157285)	2	0.199	0.114	0.05	active
39	PRAG1 (GeneID 157285)	3	-0.125	-0.0386	-0.151	inactive
40	PRAG1 (GeneID 157285)	4	-0.0316	-0.0158	0.0241	inactive
41	CAMK2N1 (GeneID 55450)	1	0.0169	-0.022	-0.0953	inactive
42	CAMK2N1 (GeneID 55450)	2	0.0445	0.372	0.0578	
43	CAMK2N1 (GeneID 55450)	3	0.314	0.202	0.0521	active
44	CAMK2N1 (GeneID 55450)	4	-0.119	0.029	-0.0257	inactive
45	BRAF (GeneID 673)	1	0.0262	0.000507	-0.119	inactive
46	BRAF (GeneID 673)	2	0.413	0.214	0.235	active
47	BRAF (GeneID 673)	3	0.234	0.027	-0.227	active
48	BRAF (GeneID 673)	4	0.162	-0.0441	-0.0801	active
49	SYK (GeneID 6850)	1	-0.125	-0.29	-0.114	inactive
50	SYK (GeneID 6850)	2	0.0608	-0.265	-0.132	inactive
51	SYK (GeneID 6850)	3	0.171	-0.0689	0.0267	active
52	SYK (GeneID 6850)	4	0.165	-0.0704	-0.0131	active
53	ACVR1 (GeneID 90)	1	0.0679	-0.239	-0.133	inactive
54	ACVR1 (GeneID 90)	2	-0.0422	-0.404	-0.242	inactive
55	ACVR1 (GeneID 90)	3	0.0767	-0.176	-0.0477	inactive
56	ACVR1 (GeneID 90)	4	-0.18	-0.177	-0.188	inactive
